From the supplement of paper PMC10849652
The other results are listed elsewhere or left out.

Protein sequences, listed by entry. Tags and fused reporters are not part of them. Lines headed by an entry give the natural chain unless they say otherwise; changes in a name come on top.
UniProt Q8WUX2: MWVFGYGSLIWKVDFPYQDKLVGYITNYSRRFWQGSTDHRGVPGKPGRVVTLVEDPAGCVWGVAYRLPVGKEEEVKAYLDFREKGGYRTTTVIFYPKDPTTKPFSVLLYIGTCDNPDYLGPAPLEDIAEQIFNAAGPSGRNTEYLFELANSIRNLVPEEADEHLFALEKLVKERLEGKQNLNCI
UniProt P21127: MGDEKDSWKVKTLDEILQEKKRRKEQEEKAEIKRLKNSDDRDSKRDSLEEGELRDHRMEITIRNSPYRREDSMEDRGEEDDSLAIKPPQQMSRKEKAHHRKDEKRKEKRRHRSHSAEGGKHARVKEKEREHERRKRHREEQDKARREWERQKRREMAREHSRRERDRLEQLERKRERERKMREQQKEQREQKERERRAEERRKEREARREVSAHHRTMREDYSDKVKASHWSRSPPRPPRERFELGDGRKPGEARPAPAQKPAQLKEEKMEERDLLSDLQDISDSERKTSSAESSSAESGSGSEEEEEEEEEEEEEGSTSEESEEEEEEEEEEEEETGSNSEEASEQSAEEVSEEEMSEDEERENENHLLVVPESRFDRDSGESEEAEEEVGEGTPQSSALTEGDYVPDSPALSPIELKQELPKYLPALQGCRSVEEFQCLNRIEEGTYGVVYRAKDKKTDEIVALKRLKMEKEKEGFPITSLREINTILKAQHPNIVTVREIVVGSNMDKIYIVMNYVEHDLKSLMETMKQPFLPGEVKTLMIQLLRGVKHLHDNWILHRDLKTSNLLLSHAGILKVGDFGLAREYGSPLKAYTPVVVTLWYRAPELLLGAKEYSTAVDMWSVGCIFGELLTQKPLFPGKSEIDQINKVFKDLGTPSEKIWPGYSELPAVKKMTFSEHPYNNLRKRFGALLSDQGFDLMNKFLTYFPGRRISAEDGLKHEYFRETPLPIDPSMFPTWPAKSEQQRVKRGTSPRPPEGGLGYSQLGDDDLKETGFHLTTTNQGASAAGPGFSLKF
UniProt Q9UJX2, whole entry, looked up: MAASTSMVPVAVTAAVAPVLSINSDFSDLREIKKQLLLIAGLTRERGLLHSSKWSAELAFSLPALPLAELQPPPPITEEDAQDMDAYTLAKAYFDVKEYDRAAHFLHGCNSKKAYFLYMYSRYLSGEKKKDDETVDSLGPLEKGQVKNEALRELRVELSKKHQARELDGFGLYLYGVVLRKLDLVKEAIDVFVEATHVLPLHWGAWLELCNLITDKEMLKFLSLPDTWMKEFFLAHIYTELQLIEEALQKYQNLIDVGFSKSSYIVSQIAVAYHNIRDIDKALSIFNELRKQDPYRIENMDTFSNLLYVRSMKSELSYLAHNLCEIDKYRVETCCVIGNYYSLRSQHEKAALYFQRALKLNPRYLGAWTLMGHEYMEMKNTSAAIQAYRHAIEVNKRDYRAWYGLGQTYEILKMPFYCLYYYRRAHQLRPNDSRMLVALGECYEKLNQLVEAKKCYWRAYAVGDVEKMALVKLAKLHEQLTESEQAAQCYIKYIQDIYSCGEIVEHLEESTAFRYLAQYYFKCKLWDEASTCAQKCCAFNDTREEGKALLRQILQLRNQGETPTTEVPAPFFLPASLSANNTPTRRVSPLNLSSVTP
UniProt O94986: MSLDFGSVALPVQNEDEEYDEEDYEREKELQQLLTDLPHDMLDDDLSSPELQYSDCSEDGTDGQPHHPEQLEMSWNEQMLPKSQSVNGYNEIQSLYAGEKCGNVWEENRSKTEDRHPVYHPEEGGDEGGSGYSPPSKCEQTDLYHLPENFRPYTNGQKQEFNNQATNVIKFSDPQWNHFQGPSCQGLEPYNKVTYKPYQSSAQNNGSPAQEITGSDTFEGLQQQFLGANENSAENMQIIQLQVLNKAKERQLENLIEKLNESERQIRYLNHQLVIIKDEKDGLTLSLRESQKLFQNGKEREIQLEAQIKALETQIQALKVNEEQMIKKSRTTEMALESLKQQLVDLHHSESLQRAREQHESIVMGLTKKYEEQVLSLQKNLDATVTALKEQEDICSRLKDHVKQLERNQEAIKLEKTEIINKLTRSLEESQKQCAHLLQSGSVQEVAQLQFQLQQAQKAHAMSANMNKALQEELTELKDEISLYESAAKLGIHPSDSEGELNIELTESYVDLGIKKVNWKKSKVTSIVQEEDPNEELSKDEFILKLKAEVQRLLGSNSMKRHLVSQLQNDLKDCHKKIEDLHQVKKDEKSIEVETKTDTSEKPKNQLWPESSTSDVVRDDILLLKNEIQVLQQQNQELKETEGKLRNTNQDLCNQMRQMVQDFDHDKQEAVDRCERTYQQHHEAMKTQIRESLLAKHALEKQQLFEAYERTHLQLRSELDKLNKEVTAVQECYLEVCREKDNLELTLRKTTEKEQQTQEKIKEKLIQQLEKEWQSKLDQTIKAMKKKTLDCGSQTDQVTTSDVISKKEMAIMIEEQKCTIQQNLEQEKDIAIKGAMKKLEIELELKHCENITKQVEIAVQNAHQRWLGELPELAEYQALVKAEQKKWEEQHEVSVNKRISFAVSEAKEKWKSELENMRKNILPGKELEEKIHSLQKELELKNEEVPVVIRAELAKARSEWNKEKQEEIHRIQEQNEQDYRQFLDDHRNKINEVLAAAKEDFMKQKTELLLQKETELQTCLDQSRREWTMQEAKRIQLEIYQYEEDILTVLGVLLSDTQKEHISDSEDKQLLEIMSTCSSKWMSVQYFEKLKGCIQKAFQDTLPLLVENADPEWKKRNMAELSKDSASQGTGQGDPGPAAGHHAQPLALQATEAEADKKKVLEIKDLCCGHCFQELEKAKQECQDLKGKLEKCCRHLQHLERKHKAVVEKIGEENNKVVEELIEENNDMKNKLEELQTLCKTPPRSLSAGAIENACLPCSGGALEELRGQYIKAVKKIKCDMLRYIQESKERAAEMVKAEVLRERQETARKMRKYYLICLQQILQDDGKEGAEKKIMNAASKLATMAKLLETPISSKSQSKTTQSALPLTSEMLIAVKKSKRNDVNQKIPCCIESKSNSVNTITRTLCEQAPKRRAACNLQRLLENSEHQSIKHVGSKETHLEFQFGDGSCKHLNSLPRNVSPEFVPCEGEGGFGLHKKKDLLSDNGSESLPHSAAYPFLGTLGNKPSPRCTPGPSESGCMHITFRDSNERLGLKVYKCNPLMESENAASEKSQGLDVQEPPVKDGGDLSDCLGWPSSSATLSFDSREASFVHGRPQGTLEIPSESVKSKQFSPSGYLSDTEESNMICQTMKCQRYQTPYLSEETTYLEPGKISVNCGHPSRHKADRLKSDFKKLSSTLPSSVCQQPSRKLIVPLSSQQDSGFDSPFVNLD
UniProt O14735: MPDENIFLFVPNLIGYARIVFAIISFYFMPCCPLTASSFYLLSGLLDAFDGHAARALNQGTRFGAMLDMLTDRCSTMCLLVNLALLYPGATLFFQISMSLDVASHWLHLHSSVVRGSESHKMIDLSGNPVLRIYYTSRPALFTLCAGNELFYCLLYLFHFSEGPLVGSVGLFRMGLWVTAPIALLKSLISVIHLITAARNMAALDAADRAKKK
UniProt Q00537: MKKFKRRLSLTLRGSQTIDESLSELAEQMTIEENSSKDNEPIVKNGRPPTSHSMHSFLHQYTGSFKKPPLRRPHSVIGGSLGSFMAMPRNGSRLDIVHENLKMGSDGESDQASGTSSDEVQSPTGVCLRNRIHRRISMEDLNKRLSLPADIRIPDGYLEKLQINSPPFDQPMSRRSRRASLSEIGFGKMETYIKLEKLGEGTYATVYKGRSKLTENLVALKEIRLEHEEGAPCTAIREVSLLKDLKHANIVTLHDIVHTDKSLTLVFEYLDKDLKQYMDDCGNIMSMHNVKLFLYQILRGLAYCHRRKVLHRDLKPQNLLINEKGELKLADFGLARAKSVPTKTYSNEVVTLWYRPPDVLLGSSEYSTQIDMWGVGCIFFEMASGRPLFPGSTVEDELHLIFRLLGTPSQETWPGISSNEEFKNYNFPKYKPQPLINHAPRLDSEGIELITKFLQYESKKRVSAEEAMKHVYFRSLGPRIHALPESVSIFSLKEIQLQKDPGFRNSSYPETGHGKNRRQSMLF
UniProt Q96G28: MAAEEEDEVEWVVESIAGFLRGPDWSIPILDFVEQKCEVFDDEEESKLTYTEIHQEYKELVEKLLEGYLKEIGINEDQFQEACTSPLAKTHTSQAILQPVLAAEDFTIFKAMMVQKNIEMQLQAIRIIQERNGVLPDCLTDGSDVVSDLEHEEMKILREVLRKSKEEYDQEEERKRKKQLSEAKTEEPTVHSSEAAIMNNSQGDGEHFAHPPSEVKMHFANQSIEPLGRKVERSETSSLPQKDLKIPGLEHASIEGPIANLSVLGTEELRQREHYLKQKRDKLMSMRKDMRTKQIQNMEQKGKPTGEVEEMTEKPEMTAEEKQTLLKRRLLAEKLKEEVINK
UniProt O60508: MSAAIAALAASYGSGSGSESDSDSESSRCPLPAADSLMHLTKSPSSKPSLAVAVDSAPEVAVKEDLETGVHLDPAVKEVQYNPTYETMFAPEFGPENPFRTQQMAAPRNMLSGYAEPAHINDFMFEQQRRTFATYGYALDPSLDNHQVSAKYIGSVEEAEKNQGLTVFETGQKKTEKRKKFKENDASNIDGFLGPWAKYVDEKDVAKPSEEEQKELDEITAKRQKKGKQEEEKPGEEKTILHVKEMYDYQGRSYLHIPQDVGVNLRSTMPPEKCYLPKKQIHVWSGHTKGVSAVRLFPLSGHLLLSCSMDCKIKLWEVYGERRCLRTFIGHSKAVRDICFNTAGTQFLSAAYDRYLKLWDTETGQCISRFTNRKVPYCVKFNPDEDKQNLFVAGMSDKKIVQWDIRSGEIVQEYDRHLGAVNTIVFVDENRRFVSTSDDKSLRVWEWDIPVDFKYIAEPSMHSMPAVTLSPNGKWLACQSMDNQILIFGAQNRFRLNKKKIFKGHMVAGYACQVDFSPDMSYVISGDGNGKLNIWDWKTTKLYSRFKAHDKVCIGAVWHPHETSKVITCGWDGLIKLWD
UniProt Q71F23: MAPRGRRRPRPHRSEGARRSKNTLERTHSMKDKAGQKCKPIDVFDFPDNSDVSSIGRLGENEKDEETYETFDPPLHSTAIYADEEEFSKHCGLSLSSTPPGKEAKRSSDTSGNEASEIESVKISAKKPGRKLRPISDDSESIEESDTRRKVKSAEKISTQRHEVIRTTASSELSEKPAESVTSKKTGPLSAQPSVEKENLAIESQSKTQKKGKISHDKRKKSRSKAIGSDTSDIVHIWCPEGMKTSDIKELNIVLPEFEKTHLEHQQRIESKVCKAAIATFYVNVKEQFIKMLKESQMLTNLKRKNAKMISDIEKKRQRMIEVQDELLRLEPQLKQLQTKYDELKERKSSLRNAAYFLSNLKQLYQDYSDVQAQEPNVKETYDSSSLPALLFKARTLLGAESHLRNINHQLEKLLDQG

Assays:
Assay in all cases: log2 fold change, soluble protein after heating vs DMSO (PISA); higher = thermal stabilisation; K562 lysate, 10 uM; active = over 0.2 and 3.5 SD of the protein, either way, in both replicates (recomputed)
[1] = compound: NCC(=O)Nc1ccc(-n2nc(C(F)(F)F)cc2-c2ccc3c(ccc4ccccc43)c2)cc1
Procedure, shortened: (§1)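 The values are log-two fold changes in thermal stability compared with solvent controls and come from duplicates. They were obtained by TMTpro 16plex LC-MS/MS, with channel sums equalised, on the supernatant after 21,000xg for 90 min. That supernatant came from crude K562 extract at 1 mg/mL protein treated with 10 μM compound for 30 min, heated for 3 min across 48°C-58°C, pooled and brought to 0.5% NP-40 at 4°C.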

vorinostat = compound: O=C(CCCCCCC(=O)Nc1ccccc1)NO [vorinostat]
Procedure, shortened: as §1

silmitasertib = compound: O=C(O)c1ccc2c(c1)nc(Nc1cccc(Cl)c1)c1ccncc12 [silmitasertib]
Procedure, shortened: as §1

[2] = compound: O=C1NC(=O)C(c2cnc3ccccn23)=C1c1cn2c3c(cc(F)cc13)CN(C(=O)N1CCCCC1)CC2
Procedure, shortened: as §1

entospletinib = compound: c1cn2cc(-c3ccc4cn[nH]c4c3)nc(Nc3ccc(N4CCOCC4)cc3)c2n1 [entospletinib]
Procedure, shortened: as §1

Row | Target | log2 fold change [1] | log2 fold change (vorinostat) | log2 fold change (silmitasertib) | log2 fold change [2] | log2 fold change (entospletinib)
1 | CHAC2 (UniProt Q8WUX2) | inactive: -0.158 | inactive: 0.066 | inactive: -0.02 | inactive: -0.012 | inactive: -0.052
2 | CDK11B (UniProt P21127) | inactive: 0.009 | inactive: -0.115 | inactive: 0.065 | inactive: -0.023 | active: 0.255
3 | CDC23 (UniProt Q9UJX2) | inactive: -0.012 | inactive: -0.149 | inactive: 0.013 | inactive: 0.017 | inactive: 0.012
4 | CEP152 (UniProt O94986) | inactive: 0.025 | inactive: -0.167 | inactive: 0.039 | inactive: 0.089 | inactive: -0.04
5 | CDIPT (UniProt O14735) | inactive: 0.001 | inactive: 0.04 | inactive: 0.064 | inactive: -0.096 | inactive: 0
6 | CDK17 isoform 2 (UniProt Q00537) | inactive: 0.01 | inactive: 0.174 | active: 0.565 | inactive: 0.103 | inactive: -0.162
7 | CFAP36 (UniProt Q96G28) | inactive: 0.02 | inactive: 0.042 | inactive: -0.075 | inactive: -0.007 | inactive: 0.009
8 | CDC40 (UniProt O60508) | inactive: 0.029 | inactive: 0.08 | inactive: 0.015 | inactive: 0.005 | inactive: 0.014
9 | CENPU (UniProt Q71F23) | inactive: 0.062 | inactive: -0.167 | inactive: 0.051 | inactive: 0.018 | inactive: -0.062

Copied from the list:
Value of CHAC2 (UniProt Q8WUX2) under log2 fold change [1]: inactive: -0.158
Value of CDK17 isoform 2 (UniProt Q00537) under log2 fold change (entospletinib): inactive: -0.162
